{"source": "patent US11974988B2", "about": "“Neuroprotective compositions and methods of using the same” (The Board of Supervisors of Louisiana State Univer …, priority 2018, dated 2024)", "tested_on": "activity-regulated Gln/MeAIB transport (SNAT activity) in hippocampal neurons", "experiment": "Activity-regulated (spontaneous, 4-AP- or K+-stimulated) [14C]-MeAIB transport in primary hippocampal neurons", "type": "cell-based, rat", "conditions": "screens; 10 μM; GABA 2 mM", "data": [{"smiles": "NCCCC(=O)O", "note": "[GABA]", "values": [{"measurement": "inhibition of spontaneous activity-regulated 14C-MeAIB transport, in words", "value": "blocked"}]}]}
